Laboratory results taken from patent publication US8535736B2, “Methods and compositions for the treatment of infection or infectious colonization of the eyelid, ocular surface, skin or ear” (Advanced Vision Research, Inc, priority 2006, dated 2013).
Some results were stated once for a whole list of compounds, not compound by compound.

Tested on: Pseudomonas aeruginosa
Experiment: Kill-time test (exposure time, survivors, log and percent reduction in CFU)
Format: cell-based
Conditions: in the concentrations tested (with tea tree oil), at one minute
Experimental: The following experiments were performed with a number of topical preparations to test the efficacy of each preparation against both gram negative and gram positive bacteria. The data is presented in tables showing the organism which the preparation was tested against, the exposure time, the number of survivors, the log reduction and the percent reduction in CFUs (Colony Forming Units).
Experiments were performed with tea tree oil, manuka oil, alpha-terpineol, and linalool in the EyeCI vehicle. The EyeCL vehicle (Advanced Vision Research, Woburn, Mass.) and OcuSoft Lid Scrub Foaming Eyelid Cleanser (CYNACON/OCUSOFT, Rosenberg, Tex.) were tested as controls.

SMILES | log reduction in CFU, P. aeruginosa
CC1=CCC(C(C)(C)O)CC1 (stereo not drawn) [alpha-terpineol] | exceeding 1 log
C=CC(C)(O)CCC=C(C)C (centres unmarked) [linalool] | exceeding 1 log
